Results on three molecules are retold here after publication PMC4877375.

No constants are given. Whether binding was seen depends on the method and setting. Binding seen in cells or lysates may run through a third protein. Here binding means that the protein was enriched with, or labelled near, the bait; the list need not be complete.

The chains are these.
T1: Trs120p-TAP (yeast (endogenous in the yeast strain)) (UniProt Q04183)
T1 sequence: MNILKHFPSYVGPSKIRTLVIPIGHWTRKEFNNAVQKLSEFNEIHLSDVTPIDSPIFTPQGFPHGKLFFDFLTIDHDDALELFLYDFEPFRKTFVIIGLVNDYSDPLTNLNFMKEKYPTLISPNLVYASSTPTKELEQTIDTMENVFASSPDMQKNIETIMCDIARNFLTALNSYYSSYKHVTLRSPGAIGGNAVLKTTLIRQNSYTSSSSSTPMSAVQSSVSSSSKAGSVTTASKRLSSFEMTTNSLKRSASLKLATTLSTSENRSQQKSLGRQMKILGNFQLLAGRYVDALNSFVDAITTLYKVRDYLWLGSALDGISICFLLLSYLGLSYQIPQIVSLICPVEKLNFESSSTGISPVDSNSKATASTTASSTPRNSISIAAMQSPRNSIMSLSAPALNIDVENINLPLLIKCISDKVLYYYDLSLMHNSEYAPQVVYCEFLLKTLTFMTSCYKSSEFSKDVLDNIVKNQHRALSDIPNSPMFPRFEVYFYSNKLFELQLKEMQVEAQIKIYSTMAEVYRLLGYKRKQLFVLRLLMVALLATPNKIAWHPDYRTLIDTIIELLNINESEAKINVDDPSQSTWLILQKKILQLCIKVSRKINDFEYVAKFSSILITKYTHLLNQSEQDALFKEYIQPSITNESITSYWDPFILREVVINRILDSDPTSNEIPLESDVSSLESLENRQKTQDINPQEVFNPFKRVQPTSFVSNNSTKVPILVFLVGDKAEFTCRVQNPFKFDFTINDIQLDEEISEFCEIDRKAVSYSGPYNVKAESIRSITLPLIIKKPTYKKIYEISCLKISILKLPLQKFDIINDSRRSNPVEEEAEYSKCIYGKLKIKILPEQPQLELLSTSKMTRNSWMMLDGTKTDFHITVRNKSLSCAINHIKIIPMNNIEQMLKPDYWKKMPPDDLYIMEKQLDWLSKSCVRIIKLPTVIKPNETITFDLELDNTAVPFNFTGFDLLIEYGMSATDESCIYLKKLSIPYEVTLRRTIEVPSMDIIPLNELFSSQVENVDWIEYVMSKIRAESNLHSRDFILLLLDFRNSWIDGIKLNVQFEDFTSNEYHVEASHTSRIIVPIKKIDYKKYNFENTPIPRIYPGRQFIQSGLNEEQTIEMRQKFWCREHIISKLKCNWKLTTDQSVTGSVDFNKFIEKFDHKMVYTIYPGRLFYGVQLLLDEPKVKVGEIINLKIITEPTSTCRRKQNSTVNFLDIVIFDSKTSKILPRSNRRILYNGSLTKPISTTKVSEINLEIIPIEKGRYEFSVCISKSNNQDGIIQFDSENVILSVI

B1: LSB3 (protein, UniProt P43603 1-459)
chain: MGINNPIPRSLKSETKKAAKILASFVKPNQVFGADQVIPPDVLKRAKGLAIITILKAGFLFSGRAGSGVIVARLKDGTWSAPSAIAMAGAGAGGMVGIELTDFVFILNTQDAVKSFSEFGTITLGGNVSVSAGPLGRSAEAAASASAGGVAAVFAYSKSKGLFAGVSVEGSAIIERREANRKFYGDNCTAKMILSGRIRPPPAVDPLFRVLESRAFNYRPSNGGRGSFDDDEDDYYDDDDYYNDIPSSFSSTDASSTRPNTRSTRRRAQSGSRYTFDDDDDDDDYGTGYSRNSRLAPTNSGGSGGKLDDPSGASSYYASHRRSGTAQSRARSSRNRWADDEYDDYDDDYESGYRRGNGRDRTKDREVDDLSNRFSKSRISSASTPQTSQGRFTAPTSPSTSSPKAVALYSFAGEESGDLPFRKGDVITILKKSDSQNDWWTGRVNGREGIFPANYVELV
B2: AKL1 (protein, UniProt P38080 1-1108)
chain: MSITNGTSRSVSAMGHPAVERYTPGHIVCVGTHKVEVVNYLAEGGFAQIYVVKFLEYLNEFDNTASVPLKIGDVACLKRVLVQDENGLNEMRNEVEVMKKLKGAPNIVQYFDSNASRRRDGVQGFEVLLLMELCPNKSLLDYMNQRLSTKLTEAEIVKIMYDVALSISQMHYLPVSLIHRDIKIENVLVDAKNNFKLADFGSTSTCFPIVTTHQDIALLTQNIYVHTTPQYRSPEMIDLYRCLPINEKSDIWALGVFLYKLLFFTTPFEMTGQFAILHSKYEFPVNKYSSKLINLIIIMLAENPNLRPNIYQVLYHLCEILNVEVPIEDKYAEGAYNFSKYTQFQNKLQNVQLQMYQLQQKKIMQNNKLSDSEENLLNDMFLSSFEISSKLPMNASDGHAAVSRIPSQNVGQELEEEKESQSDQRKSTLSEDKSSRTTSNANSSGTANNPQEINTIQSPGIEDKSIFENKTPGELYYPSVSELDTYLDKELVKQSSDPTISEQSPRLNTQSLPQRQKSTSSYSSGGRSMKSTSYGAATIGSDEALANEKTAGINKMKQHKSNNPFPKMNVAYHSTNELSNDASNFFLEEQQQGQRYQQAQNQTGTQGNTFPDESQYQSRVEQQQQQQDQPKGPANYSQRNFYTGRDRSNKPMQLGGTIAGDSGNRRVNFQNISQNYATNSQSGYLPSQNSPAIPMVRPVISMNQQQAQQIQAQQLQAQQMQAKQQMQAKQQMQVQQQLQVQQQMQIQNANNNGTYVSDRTNHTTEDMRNAQGGEPPILAGNSANEPMHSSSKNEALLIELSPLKEDAGKQSFQDTNEPQTGGIEDAGGSGTIKGSNNNRNGVLNLSLNEMDLSRDDTGAAVSSFSSSSSSASIQQAKLSGRKGSSKRNNYSTDELGDSMVSSESIDIDLDDARRGKTAERRPLHNERGHKDQARSSDASKSNQFKSKDFSSVSTRQPRQSLDLNFQEVNLSSPTLTQEHRNKNDSPAPNSHHSYRVSPHASTAITENKRHSTGHELSTRSNGKHETHRTGSKQRHDLERYRHSKDKDSNSSITISTSTPSEMRKSFARARQSLDLERVRREAMASSASSSGGSNGKRRSFFSVFRSEK
B3: SKN1 (protein, UniProt P33336 1-771)
chain: MSVRNLTNNRHSNSENSVSGSENSFYSSNEQSRQSSSLEPADGQNVRVSGNPFLGSEEFDEDYNSPSGDDERRGANEYSSSSSINYNNDPNSDTSLLANEKNSPERNGQRMSDYKGYYAKTNLTSANNLNNHNNNNYKNIISSSNDNSFASHLQPPDRNLPSHPSSNNMSSFSNNSLIKSPPPFDRYPLVGTRHISAAQSQSQNLINEKKRANMTGSSSSAHDSSLSSTNLYMGEQDFSPFGGYPASFFPLTLDEKEDDDYIHNPNVEEEAKLDRRRFVDDFKHMDRRSFLGLLGILFLFMAGIFIFIVLPAITFSGVVYHHEHVHAANSAGSSSSNTTSKSLTEYQYPQLAAIRTTLVDPDTPDSAKTRVAKDGSKWQLVFSDEFNAEGRTFYDGDDQFWTAPDIHYDATKDLEWYSPDAVTTTNGTLTLRMDAFRNHDLYYRSGMVQSWNKLCFTEGALEVSANLPNYGRVTGLWPGMWTMGNLGRPGYLASTQGVWPYSYEACDAGITPNQSSPDGISYLPGQKLSVCTCDNEDHPNQGVGRGAPEIDILEGEADTILGVGVASQSLQIAPFDIWYMPDYDFIEVYNFTTTTMNTYAGGPFQQAVSAISTLNVTWYEFGEEAGYFQKYAIEYLNDDDNGYIRWFVGENPTFTLYATSLHPSGNIDWRRISKEPMSAILNLGISNNWAYIDWQYIFFPVTMSIDYVRLYQPKGSTSITCDPEDYPTYDYIQSHLNAYYNANLTDWEQAGYTFPKNILTGGCSSSKFSLS

This assay addresses T1, Trs120p-TAP (yeast (endogenous in the yeast strain)). Description: affinity purification with mass spectrometry; Trs120p-TAP purified from yeast lysate (1% CHAPS, 100 mM NaCl) on IgG beads, TEV elution, calmodulin beads, EGTA elution; gel bands or total eluate analysed by MS/MS.
As to B1, the binding entry was “binds”.
With B2 the entry was “binds”; with B3, “binds”.
